Results deposited as PubChem BioAssay AID652243 (Drosophila RNAi Screening Center, 2013)

Assay: 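Fly genes required for human androgen receptor driven transcription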 (primary screen)
Cells: Drosophila S2R+ cells
Reagents: long dsRNA against Drosophila genes
Timing: 72 h (48 h, then 24 h hormone)
Conditions: synthetic androgen R1881 at 10 nM for 24 h
Read-out: 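Per-well raw luminescence of the androgen-driven firefly reporter and of the Renilla control, two replicates each, without normalisation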
Direction: firefly reporter light: higher = more light from androgen-responsive reporter; Renilla control light: higher = more constitutive control signal (cell number, transfection)
Call rule: 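Hit when the log firefly-to-Renilla ratio dropped or increased by a fixed fold versus the mean of GFP or LacZ controls across duplicate plates; lowering cut given as 1.5 and as 3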
Calls: active = hit: reporter lowered or raised; inactive = no hit
The deposit covers about 24,000 reagents; shown is a random part of those that have a named target and a result. Over the whole deposit, 246 (1%) are marked active. 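Plates not normalised; calls are printed but the firefly/Renilla ratio behind them is not deposited; fold cut for lowering reported inconsistently.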 The raw values are shown without normalisation. Reagent sequences are not shown. The record does not give: the amount of reagent.

gene | amplicon | firefly reporter light, replicate 1 | firefly reporter light, replicate 2 | Renilla control light, replicate 1 | Renilla control light, replicate 2 | Outcome
CG30161 | DRSC22141 | 9.15e5 | 8.97e5 | 4.91e5 | 5.84e5 | inactive
CG3955 | DRSC06859 | 8.45e5 | 7.83e5 | 2.08e6 | 2.08e6 | inactive
mof | DRSC18795 | 1.80e5 | 2.48e5 | 1.44e6 | 1.06e6 | inactive
mof | DRSC24125 | 5.80e5 | 6.27e5 | 3.23e5 | 3.17e5 | inactive
BomS4 | DRSC22509 | 5.36e5 | 7.97e5 | 1.47e6 | 2.44e6 | inactive
pug | DRSC17036 | 1.37e5 | 1.38e5 | 2.52e6 | 1.96e6 | inactive
pug | DRSC29896 | 4.16e5 | 3.47e5 | 9.46e5 | 8.52e5 | inactive
pkaap | DRSC01925 | 1.01e5 | 1.79e5 | 1.31e6 | 2.40e6 | inactive
pkaap | DRSC36967 | – | – | – | – | inactive
pkaap | DRSC36968 | – | – | – | – | inactive
Spt5 | DRSC07556 | 70677 | 99487 | 1.09e6 | 1.34e6 | inactive
melt | DRSC11367 | 2.00e5 | 1.88e5 | 2.66e6 | 2.58e6 | inactive
Or13a | DRSC20265 | 4.76e5 | 4.52e5 | 3.68e6 | 2.49e6 | inactive
CG15306 | DRSC17993 | 3.06e5 | 3.85e5 | 2.51e6 | 3.52e6 | inactive
CG15306 | DRSC18240 | 3.91e5 | 4.70e5 | 2.24e6 | 2.93e6 | inactive
CG15306 | DRSC29972 | 4.12e5 | 4.07e5 | 7.10e5 | 6.23e5 | inactive
CG5180 | DRSC15731 | 1.89e5 | 1.67e5 | 2.55e6 | 2.74e6 | inactive
CG17593 | DRSC00504 | 1.29e5 | 83456 | 8.21e5 | 6.87e5 | inactive
CG17593 | DRSC27490 | 2.68e5 | 3.05e5 | 7.58e5 | 9.40e5 | inactive
Obp50a | DRSC22152 | 6.85e5 | 6.75e5 | 3.23e6 | 2.54e6 | inactive
Obp50a | DRSC28404 | 4.40e5 | 5.01e5 | 7.17e5 | 1.04e6 | inactive
CG42458 | DRSC23129 | 3.78e5 | 3.77e5 | 9.05e5 | 1.13e6 | inactive
CG42458 | DRSC23261 | 6.87e5 | 6.38e5 | 1.19e6 | 1.10e6 | inactive
CG42458 | DRSC26691 | 3.01e5 | 2.87e5 | 8.04e5 | 8.08e5 | inactive
CG42458 | DRSC29831 | 3.95e5 | 3.63e5 | 1.44e6 | 1.28e6 | inactive
oc | DRSC25006 | 3.27e5 | 3.31e5 | 3.79e5 | 4.73e5 | inactive
CG13005 | DRSC19524 | 3.87e5 | 4.27e5 | 3.50e6 | 3.08e6 | inactive
CG7222 | DRSC07019 | 8.01e5 | 1.07e6 | 1.88e6 | 2.22e6 | inactive
CG8321 | DRSC07148 | 1.09e6 | 1.04e6 | 1.95e6 | 1.28e6 | inactive
Dbp73D | DRSC11142 | 18014 | 14253 | 3.35e5 | 2.84e5 | active
CG10749 | DRSC09798 | 2.78e5 | 1.70e5 | 1.52e6 | 1.53e6 | inactive
CG10749 | DRSC27656 | 5.14e5 | 4.85e5 | 8.97e5 | 9.01e5 | inactive
Tre1 | DRSC18726 | 2.20e5 | 2.78e5 | 1.82e6 | 1.82e6 | inactive
Tre1 | DRSC28244 | 3.18e5 | 7.57e5 | 1.06e6 | 1.58e6 | inactive
Gr9a | DRSC22506 | 5.08e5 | 9.32e5 | 1.31e6 | 2.24e6 | inactive
CG31549 | DRSC21688 | 9.08e5 | 7.36e5 | 2.41e6 | 1.69e6 | inactive
CG5087 | DRSC10479 | 1.99e5 | 1.94e5 | 1.86e6 | 1.81e6 | inactive
fd3F | DRSC23032 | 7.28e5 | 1.00e6 | 1.20e6 | 1.45e6 | inactive
Gyc32E | DRSC01154 | 1.06e5 | 1.60e5 | 1.52e5 | 2.58e5 | inactive
Gyc32E | DRSC29757 | 4.37e5 | 4.03e5 | 1.79e6 | 1.52e6 | inactive
Gyc32E | DRSC39261 | – | – | – | – | inactive

Records above whose target name begins with P or p (5):
gene | amplicon | firefly reporter light, replicate 1 | firefly reporter light, replicate 2 | Renilla control light, replicate 1 | Renilla control light, replicate 2 | Outcome
pug | DRSC17036 | 1.37e5 | 1.38e5 | 2.52e6 | 1.96e6 | inactive
pug | DRSC29896 | 4.16e5 | 3.47e5 | 9.46e5 | 8.52e5 | inactive
pkaap | DRSC01925 | 1.01e5 | 1.79e5 | 1.31e6 | 2.40e6 | inactive
pkaap | DRSC36967 | – | – | – | – | inactive
pkaap | DRSC36968 | – | – | – | – | inactive
